Source: patent US20260053799A1, “COMPOUNDS FOR TREATING CANCER” (EVEXTA BIO, priority 2022, published 2026)
For at least one compound, name, drawing or mass did not settle the structure.

System: MCF7 tumors
Experiment: Antitumor efficacy in xenograft model of SCID-CB17 mice implanted with MCF7 cells
Format: in vivo
Settings: Abemaciclib 40 mg/kg/day, per os, qd 5 weeks
Protocol: Antitumor efficacy of anticancer compounds in a xenograft model of SCID-CB17 mice implanted with MCF7 cells, and assessment of the substrates phosphorylation.
MCF7 cells are amplified in vitro in complete medium prior implantation. 24h prior cells injection, the mice are implanted with an estrogen pellet (Innovative Research of America at 0.18 mg/pellet).
On the day of injection, cells are harvested, counted thanks to a trypan blue viability dye (acceptability cut-off ≥80% viability), and resuspended in 50:50 PBS:Matrigel at the appropriate concentration. The cells are then injected subcutaneously in the right flank at 5.10^6 cells/mouse in 200 μL PBS:Matrigel within 30 minutes after harvesting, in 120 mice. […]
In order to assess the effectiveness of the compounds on tumorigenesis, tumor volume are measured twice per week for 8 weeks and mice are weighed once per week for 8 weeks.
The sizes of the primary tumors are measured using calipers and the tumor volume (TV) is extrapolated to a sphere using the formula TV=4/3π×r3, by calculating the mean radius from the two measurements. […]

Structure (SMILES): CCN1CCN(Cc2ccc(Nc3ncc(F)c(-c4cc(F)c5nc(C)n(C(C)C)c5c4)n3)nc2)CC1 [abemaciclib, reference compound]
- MCF7 tumor growth (tumor volume): strongly inhibited tumor growth, as efficiently as abemaciclib
